Data as given in PubChem BioAssay AID504784 (Drosophila RNAi Screening Center, 2011)
The deposit covers about 17,000 reagents; shown is an unselected part of those with a known target gene and a result. 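Each column is one replicate's B-score; the combined score over replicates was not deposited, so single values may mislead.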 The numbers tell different reagents against one gene apart. Names joined by + are all predicted targets of the reagent.

- Test: 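Search for regulators of lipid droplet storage in oleate-fed fly cells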 (primary screen)
- System: Drosophila Kc167 embryonic cells
- Reagents: long dsRNA against Drosophila genes, about 250 ng dsRNA per well
- Time to read-out: 4 days
- Treatment: cells fed 400 µM oleic acid bound to BSA
- Read-out: 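Microscope images give a droplet-to-nucleus area ratio, taken as log and converted to a screen-wide B-score; higher values mean greater lipid storage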
- Scale: droplet/nuclear area B-score: higher = more stored lipid (overstorage)

Gene	dsRNA no.	droplet/nuclear area B-score, replicate 1	droplet/nuclear area B-score, replicate 2	droplet/nuclear area B-score, replicate 3
CG13380 + CG4174	1	1.08	-0.482	-1.76
CG13380 + CG4174	2	-0.675	2.68	
CG4793	1	0.273	0.417	
CG1074	1	-2.71	-2.67	-0.39
GAPcenA	1	0.205	-0.982	
CG7295	1	1.22	-0.00689	
CG9426	1	1.95	0.0265	
defl	1	3.05	0.87	
pim	1	-1.25	0.264	
THADA	1	-0.725	-2.47	
nxf2	1	1.38	1.82	-0.769
Pex19	1	-0.391	0.12	
tant	1	0.426	-1.2	
CG13577	1	0.951	-0.388	
Srp72	1		-0.756	
CG33969	1	0.488	-0.99	
CG42516 + Pbp49	1	-0.0177	0.186	
Elba1	1	-0.322	-1.27	
RnpS1	1	-0.0949	-0.621	
RnrS	1	7.56	-1.26	
Sans	1	0.508	0.165	
CG10332 (retired record) + IM18	1	0.824	-0.813	
TotE	1	-0.662	-0.624	
CG5003	1	-2.12		
CG14369	1	0.859	1.49	
Drl-2	1	-0.0761	-0.88	
Drl-2	2	1.27	-0.692	
Drl-2	3	2.88	0.89	
CG31145	1	-0.889	-2.35	
CG31145	2	-0.0401	0.458	
CG31145	3	-0.635	0.72	
Pex14	1	-1.08	-0.148	
kuz	1	-0.0546	0.0743	
CG9917	1	-0.822	-0.948	-0.0435
lawc (retired record)	1	-2.98	-3.37	
lawc (retired record)	2	-0.38	-2.5	
Mef2	1	0.0221	0.264	
CG8420	1	0.547	0.187	
CG14566	1	0.395	0.431	
CG10466	1	0.442	-0.44	
CG12725	1	-0.00324	-0.166	0.431
CG4230	1	0.0299	-0.0845	
CG7094	1	0.21	0.999	
msl-2	1	0.664	-0.636	
CG7742	1	-0.673	1.75	
GstO2	1	2.68	-0.0631	
CG11902	1	-1.58	-1.28	1.22
CG17567 (retired record)	1	-1.07	-0.146	
CG17567 (retired record)	2	1.2	0.986	
CG14321	1	-1.75	0.0217	
AIMP1	1	1.43	-1.78	
CG42268	1	1.09	2.52	
CG42268	2	0.569	-1.65	
CG42268	3	-0.711	-1.19	
cd	1	-0.463	-2.13	
tpr	1	-0.383	-0.699	
SkpA	1	1.2		
CG15046	1	-0.434	-7.1	
CG33221 (retired record)	1	-0.248	-0.239	
osi	1	-1.12	0.00743	-1.49
CG13862	1	-0.0359	0.956	
CG32454	1	-1.02	-0.0678	0.609
Pi3K92E	1	-0.364	0.381	
ssp	1	1.28	0.25	
CG9536	1	-0.743	-1.26	
GstE13	1	-1.22	-0.719	
FoxP	1	-0.0337	-0.462	
FoxP	2	-1.12	0.98	
CG13800 (retired record)	1	0.434	-0.0345	
Vlet	1	1.52	-0.201	-1.33
CG30460	1	0.391	-2.6	
CG30460	2	-1.43	-1.51	
CG30460	3	-0.112	-1.63	
CG34384	1	0.408	2.78	
CG34384	2	-0.517	0.239	
CG34384	3	-0.319	0.0104	
Ptth	1	-1.16	0.104	
CG30265	1	-0.0532	1.92	
tous	1	1.11	1.02	
CG31294	1	-0.63	-1.11	
CG33310	1	0.0398	1.59	
Ass + CG31286	1	-0.251	-0.281	
Gba1b	1	0.0204	-0.0133	

Part of the list above, set out differently:
CG13862: droplet/nuclear area B-score, replicate 1 = -0.0359; droplet/nuclear area B-score, replicate 2 = 0.956
CG32454: droplet/nuclear area B-score, replicate 1 = -1.02; droplet/nuclear area B-score, replicate 2 = -0.0678; droplet/nuclear area B-score, replicate 3 = 0.609
Pi3K92E: droplet/nuclear area B-score, replicate 1 = -0.364; droplet/nuclear area B-score, replicate 2 = 0.381
ssp: droplet/nuclear area B-score, replicate 1 = 1.28; droplet/nuclear area B-score, replicate 2 = 0.25
CG9536: droplet/nuclear area B-score, replicate 1 = -0.743; droplet/nuclear area B-score, replicate 2 = -1.26
